Primary screen of a compound library

The chains behind the UniProt entries cited, without tags or fusion partners. Residues count along the entry.
UniProt Q8IDJ8, 1-583: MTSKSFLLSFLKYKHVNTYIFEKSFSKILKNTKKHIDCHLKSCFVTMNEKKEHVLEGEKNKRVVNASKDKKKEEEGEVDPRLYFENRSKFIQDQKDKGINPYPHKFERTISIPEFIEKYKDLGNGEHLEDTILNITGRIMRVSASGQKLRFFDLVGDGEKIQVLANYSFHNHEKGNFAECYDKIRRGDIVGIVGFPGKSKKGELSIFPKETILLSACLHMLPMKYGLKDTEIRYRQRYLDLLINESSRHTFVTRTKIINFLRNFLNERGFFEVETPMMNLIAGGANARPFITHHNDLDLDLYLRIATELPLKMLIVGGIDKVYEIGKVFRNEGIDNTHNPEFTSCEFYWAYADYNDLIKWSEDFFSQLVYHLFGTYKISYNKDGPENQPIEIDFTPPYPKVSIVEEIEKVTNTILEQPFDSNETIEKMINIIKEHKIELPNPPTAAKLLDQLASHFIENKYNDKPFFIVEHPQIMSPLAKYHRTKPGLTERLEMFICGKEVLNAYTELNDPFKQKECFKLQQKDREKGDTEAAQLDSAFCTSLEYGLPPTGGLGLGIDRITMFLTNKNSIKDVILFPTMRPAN
UniProt A4I591, 1-473: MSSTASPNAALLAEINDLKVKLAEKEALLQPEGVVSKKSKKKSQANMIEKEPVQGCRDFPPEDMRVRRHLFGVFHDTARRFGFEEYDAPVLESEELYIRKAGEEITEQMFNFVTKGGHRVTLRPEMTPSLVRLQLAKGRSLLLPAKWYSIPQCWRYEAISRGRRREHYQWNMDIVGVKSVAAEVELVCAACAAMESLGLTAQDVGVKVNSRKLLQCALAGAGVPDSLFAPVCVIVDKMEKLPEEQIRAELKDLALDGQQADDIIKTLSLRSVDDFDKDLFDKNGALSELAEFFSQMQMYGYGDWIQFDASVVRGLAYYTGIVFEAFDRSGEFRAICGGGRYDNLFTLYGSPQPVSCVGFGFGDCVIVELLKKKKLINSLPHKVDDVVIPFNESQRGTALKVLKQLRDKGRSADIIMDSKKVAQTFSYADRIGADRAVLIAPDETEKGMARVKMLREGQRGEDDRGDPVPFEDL

The values are deposited in ChEMBL (CHEMBL3988442, “University of Dundee, Small-Polar-MMV Screening Library” (2021)).

A: 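Whole-parasite assay of Trypanosoma brucei over 72 hours; the read-out is not stated. Compounds at 30 µM. The record gives no direction; compounds that gave an IC50 in retests scored well above the rest, so higher reads as stronger inhibition. Values scatter widely below zero; nearly all retest evidence comes from the higher of the two concentrations used. Of about 64,000 compounds tested this way, about 940 (1.5%) reached 50% or more in at least one test.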
B: 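Lysine-tRNA ligase, Plasmodium falciparum 3D7 (UniProt Q8IDJ8). Enzyme assay of the cytosolic lysyl-tRNA synthetase in 384-well plates, read by luminescence. Concentration: 30 µM. Direction is inferred from only a few compounds that gave an IC50; most scored high, so higher reads as stronger inhibition. Size under these conditions: about 69,000 compounds, about 49 of them at 50% or above in at least one test.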
C: 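Enzyme assay of histidyl-tRNA synthetase; the read-out is not stated. Target: Histidine-tRNA ligase, Leishmania infantum (UniProt A4I591). Concentration: 30 µM. The record gives no direction; compounds that gave an IC50 in retests scored well above the rest, so higher reads as stronger inhibition. The assay is labelled LdHisRS but filed under L. infantum. Size under these conditions: about 69,000 compounds, about 410 of them at 50% or above in at least one test.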
D: 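Assay of Toxoplasma gondii numbers, read through their beta-galactosidase reporter with a colour substrate. Concentration: 10 µM. The record gives no direction; the compounds picked for IC50 retests had high values, so higher reads as fewer parasites. Of about 67,000 compounds tested this way, about 260 (0.38%) reached 50% or more in at least one test.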

The filed quantity is “Percent Effect” (%). The controls that fix the scale are not given in the record; negative values are as filed. This is an unselected part of the compounds tested. A dash means the value is not listed here; it may have been measured.

{"structure": "CCCN1C[C@H](NC(=O)c2cccs2)[C@@H](c2ccc(OC)cc2)C1", "A": -47.74, "B": 1.452, "C": 32.63, "D": -6.632}
{"structure": "CC1CCN(c2ccc(=O)n(CC(=O)NCCc3ccccc3)n2)CC1", "A": -6.806, "B": 4.076, "C": 14.61, "D": 6.892}
{"structure": "CCn1cc(NC(=O)NCC(C)N(C)C2CC2)cn1", "stereo": "configuration not stated", "B": -0.684, "C": 8.475, "D": -2.083}
{"structure": "CCS(=O)(=O)CCN1CCCC1c1noc(C)n1", "stereo": "configuration not stated", "A": 8.426, "B": -1.705, "C": 19.64, "D": -5.108}
{"structure": "C[C@@H]1CN(Cc2ccsc2)C[C@]12CCN(Cc1cccnc1)C2=O.O=C(O)C(F)(F)F.O=C(O)C(F)(F)F", "A": -20.06, "D": -1.478}
{"structure": "COCCN1CC[C@H](OC)[C@@H]1Cc1ccccc1", "B": -0.6902, "C": 2.564}
{"structure": "CCCNC(=O)N1CCCC2(CCC(=O)N(CCc3c[nH]cn3)C2)C1", "stereo": "configuration not stated", "A": -40.15, "B": 13.26, "C": 17.81, "D": -8.62}
{"structure": "CS(=O)(=O)N1CCC2(CN(C(=O)c3cccnc3)C2)C1", "B": -1.955, "C": 11.43}
{"structure": "NC1(CNC(=O)c2cc3ccccc3[nH]2)CCCC1", "A": -24.04, "B": -1.957, "C": -9.901, "D": 4.544}
{"structure": "[H][C@]12CC[C@]([H])(CN(C(=O)Nc3cccc4ccccc34)C1)N(C)C2=O", "A": -36.04, "D": 6.56}
{"structure": "CCCS(=O)(=O)N1Cc2nccn2CC(CN2CCCC2)C1", "stereo": "configuration not stated", "B": 4.747, "C": 9.211}
{"structure": "CN(Cc1cccnc1)Cc1cncc2c1CCN(c1ccccn1)C2.Cl.Cl.Cl", "A": -5.787, "D": 11.76}
{"structure": "CCC(C#N)NC(=O)COC1CCCCC1", "stereo": "configuration not stated", "A": 14.14, "B": 4.207, "C": 1.587, "D": 0.059}
{"structure": "CCc1ccc(CN2CCC(c3ccccc3C(=O)O)C2)nc1", "stereo": "configuration not stated", "A": -15, "B": 4.498, "C": 26.83, "D": 10.04}
{"structure": "COc1cccc(CN(C)Cn2nc(C(C)(C)C)ccc2=O)c1", "A": 3.344, "B": 8.086, "C": 9.91, "D": 0.4545}
{"structure": "CN(C)c1ncccc1CNS(=O)(=O)c1ccc(C(N)=O)cc1", "B": 1.842, "C": 16.95, "D": -8.368}
{"structure": "CCC(CO)N(Cc1cccs1)C(=O)Cc1ccc(O)cc1", "stereo": "configuration not stated", "A": -43.77, "B": -1.61, "C": -12.9, "D": 0.1985}
{"structure": "O=C(O)C(F)(F)F.O=C(O)C(F)(F)F.[H][C@@]12COC[C@]1(C(=O)NCc1ccccn1)CN(Cc1ccsc1)C2", "A": -46.8, "D": 4.456}
{"structure": "Cc1noc(C)c1CN1Cc2cn(C)nc2C(COCC2CC2)C1", "stereo": "configuration not stated", "B": -7.059, "C": 11.76}
{"structure": "O=C(NCc1sc2ccccc2c1Cl)c1cc2n(n1)CCNC2", "A": -20.94, "B": -0.8986, "C": 18.07, "D": 1.399}
{"structure": "CCCNc1ccc(C(=O)NCCc2cccc(Cl)c2)cn1", "A": -0.1923, "B": 4.386, "C": 23.76, "D": -23.85}
{"structure": "Cc1c(C2CCCN(C(=O)c3ccn(C)n3)C2)n2c(nc1=O)CCC2", "stereo": "configuration not stated", "A": -0.01784, "B": 5.879, "C": 11.46, "D": 3.283}
{"structure": "[H][C@@]12CN(Cc3ccc(S(C)(=O)=O)cc3)C[C@]1([H])OCC(=O)N2CC(N)=O", "A": -13.71, "D": 9.643}
{"structure": "Cc1nc(CN2CCCC(C)(CO)C2)no1", "stereo": "configuration not stated", "A": -41.91, "B": -3.177, "C": 2.041, "D": 13.24}
{"structure": "CN(C)C[C@@H]1CCC[C@@H]2CN(c3cccnc3)C[C@@H]21", "B": 4.726, "C": 25.24}
{"structure": "Cc1cccc(-n2ncc3c(=O)n(CCN4CCCCC4)cnc32)c1C", "A": -27.81, "B": -1.819, "C": 24.39, "D": 13.91}
{"structure": "Cc1ccc(NC2CCN(C(=O)CCc3c(C)noc3C)CC2)nn1", "A": 15.64, "B": 3.044, "C": 14.29, "D": -13.74}
{"structure": "COCC1CN(Cc2cccc(C#N)c2)Cc2nccn2C1", "stereo": "configuration not stated", "A": -27.51, "B": 1.549, "C": 20.21, "D": -17.73}

The first 3 entries again:

structure	A	B	C	D
CCCN1C[C@H](NC(=O)c2cccs2)[C@@H](c2ccc(OC)cc2)C1	-47.74%	1.452%	32.63%	-6.632%
CC1CCN(c2ccc(=O)n(CC(=O)NCCc3ccccc3)n2)CC1	-6.806%	4.076%	14.61%	6.892%
CCn1cc(NC(=O)NCC(C)N(C)C2CC2)cn1 (configuration not stated)	-	-0.684%	8.475%	-2.083%